The text below walks through data of PMC4521584.

Chains of the proteins cited; added tags and fusions are not shown. Lines headed by an entry give the natural chain unless they say otherwise; changes in a name come on top.
UniProt P23909: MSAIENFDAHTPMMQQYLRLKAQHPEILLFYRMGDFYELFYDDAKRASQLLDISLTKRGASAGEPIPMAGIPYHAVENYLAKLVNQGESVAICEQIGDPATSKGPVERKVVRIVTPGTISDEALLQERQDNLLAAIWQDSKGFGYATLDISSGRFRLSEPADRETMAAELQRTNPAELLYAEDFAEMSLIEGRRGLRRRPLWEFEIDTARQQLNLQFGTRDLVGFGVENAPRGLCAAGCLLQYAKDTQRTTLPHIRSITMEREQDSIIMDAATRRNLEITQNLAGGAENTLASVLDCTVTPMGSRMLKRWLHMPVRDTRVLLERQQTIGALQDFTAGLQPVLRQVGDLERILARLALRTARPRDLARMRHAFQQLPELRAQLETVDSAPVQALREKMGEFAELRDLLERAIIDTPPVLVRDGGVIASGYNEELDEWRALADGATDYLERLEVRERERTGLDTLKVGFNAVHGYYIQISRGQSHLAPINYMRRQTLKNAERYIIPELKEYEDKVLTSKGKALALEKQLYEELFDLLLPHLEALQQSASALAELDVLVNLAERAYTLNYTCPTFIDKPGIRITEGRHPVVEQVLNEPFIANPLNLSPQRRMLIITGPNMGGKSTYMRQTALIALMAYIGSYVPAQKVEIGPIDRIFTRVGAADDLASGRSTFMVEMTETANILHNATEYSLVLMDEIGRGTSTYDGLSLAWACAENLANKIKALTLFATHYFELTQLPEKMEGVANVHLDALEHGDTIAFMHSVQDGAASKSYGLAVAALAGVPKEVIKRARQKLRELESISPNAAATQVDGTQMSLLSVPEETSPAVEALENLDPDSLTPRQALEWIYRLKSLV

Residue numbers refer to the chain shown, from its start. Construct, isoform or probe ends are uncertain for at least one entry. For some of these results: The comparison behind a weaker result is the experiment's own reference, which may not be listed here. For some of these results: At least one verdict rests on a figure or table, not on a statement of the authors. For some of these results: Protein sequences can lack the tags named with them.

Data set [1] relates to MutS P595A/I597A/M759D + MutL WT. Nature of the data set: SPR. As to conditions: 1 mM ATP, end-blocked, reduced MutS/MutL complex formation; SPR: 25 mM Hepes pH 7.5, 150 mM KCl, 5 mM MgCl2, 1 mM DTT, 0.05% Tween-20, 1 mM ATP (+20% glycerol for MutL-MutS assay); recombinant protein; protein details: His6.
The target in data set [2] is MutS D835R 449C-AF594 (UniProt P23909). Put plainly: FRET (SYTOX Blue DNA to protein). As to conditions: with and without 1 mM ATP, DNA moves away from 449; FRET: 25 mM Hepes pH 7.2, 150 mM KCl, 5 mM MgCl2; recombinant protein; residues 1-853; protein details: His, Alexa Fluor 594.
Data set [3] deals with MutS D835R A336C-AF594 (UniProt P23909). Nature of the data set: FRET (SYTOX Blue DNA to protein). As to conditions: with and without 1 mM ATP, DNA approaches 336; FRET: 25 mM Hepes pH 7.2, 150 mM KCl, 5 mM MgCl2; recombinant protein; residues 1-853; protein details: His, Alexa Fluor 594.
The target of data set [4] is T1, MutL WT (UniProt P23367).
T1 sequence (looked up): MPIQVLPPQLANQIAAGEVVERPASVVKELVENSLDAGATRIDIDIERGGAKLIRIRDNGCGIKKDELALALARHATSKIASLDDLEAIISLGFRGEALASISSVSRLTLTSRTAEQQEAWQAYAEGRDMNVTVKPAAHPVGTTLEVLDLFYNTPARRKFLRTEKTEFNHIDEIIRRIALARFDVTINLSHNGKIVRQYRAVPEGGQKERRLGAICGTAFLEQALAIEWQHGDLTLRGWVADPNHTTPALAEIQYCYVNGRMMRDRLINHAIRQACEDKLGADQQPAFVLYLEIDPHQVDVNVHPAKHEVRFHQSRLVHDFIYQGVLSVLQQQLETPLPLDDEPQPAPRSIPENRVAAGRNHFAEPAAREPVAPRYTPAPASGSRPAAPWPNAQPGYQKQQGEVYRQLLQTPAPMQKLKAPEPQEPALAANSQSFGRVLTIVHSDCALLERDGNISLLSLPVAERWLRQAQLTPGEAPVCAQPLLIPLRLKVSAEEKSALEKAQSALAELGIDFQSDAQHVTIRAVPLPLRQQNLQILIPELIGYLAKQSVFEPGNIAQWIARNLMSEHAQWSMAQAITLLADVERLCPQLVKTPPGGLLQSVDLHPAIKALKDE
Put plainly: fluorescence polarization. As to conditions: 50 mM KCl, 10% glycerol; FP: same but 50 mM KCl, no ATP (+10% glycerol for full-length MutL); recombinant protein; residues 1-615; protein details: His6; label: 5' TAMRA. (In general: Polarisation of emitted light reports the rotation of a fluorescent probe.)

Data set [5] concerns the target T2, MutLLN40 N131C R266E (UniProt P23367).
T2 sequence (looked up, limits assumed): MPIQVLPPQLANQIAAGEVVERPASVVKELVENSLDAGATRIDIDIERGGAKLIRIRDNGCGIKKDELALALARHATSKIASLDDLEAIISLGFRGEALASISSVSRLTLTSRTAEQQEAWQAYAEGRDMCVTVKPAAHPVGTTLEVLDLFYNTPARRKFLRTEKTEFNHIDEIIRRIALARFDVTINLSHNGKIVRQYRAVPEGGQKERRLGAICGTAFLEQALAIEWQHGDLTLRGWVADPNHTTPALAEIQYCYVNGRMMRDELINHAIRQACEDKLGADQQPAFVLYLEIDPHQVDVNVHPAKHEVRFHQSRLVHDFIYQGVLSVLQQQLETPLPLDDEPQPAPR
Nature of the data set: fluorescence polarization. To be noted: 50 mM KCl; FP: same but 50 mM KCl, no ATP (+10% glycerol for full-length MutL); recombinant protein; protein details: His; label: 5' TAMRA.

The target of data set [6] is T3, MutL R266E (full length) (UniProt P23367).
T3 sequence (looked up): T1 sequence (looked up) with R266E
Put plainly: fluorescence polarization. As to conditions: 50 mM KCl, 10% glycerol, effect most pronounced in full-length context; FP: same but 50 mM KCl, no ATP (+10% glycerol for full-length MutL); recombinant …; residues 1-615; protein details: His; label: 5' TAMRA.

Data set [7] has as its target T4, MutLLN40 N131C (UniProt P23367).
T4 sequence (looked up, limits assumed): T2 sequence (looked up, limits assumed) with E266R
Put plainly: fluorescence polarization. To be noted: 50 mM KCl; FP: same but 50 mM KCl, no ATP (+10% glycerol for full-length MutL); recombinant protein; protein details: His; label: 5' TAMRA.

With “AAACAGGCTTAGGCTGGAGCTGAAGCTTAGCTTAGGATCATCGAGGATCGAGCTCGGTGCAATTCAGCGGTACCCAATTCGCCCTATAGGCATCCAGGTT / AACCTGGATGCCTATAGGGCGAATTGGGTACCGCTGAATTGCACCGAGCTTGATCCTCGATGATCCTAAGCTAAGCTTCAGCTCCAGCCTAAGCCTGTTT [100-bp G:T mismatch DNA]”, the binding result in data set [1] is “binds more weakly”.
As to “AATTGCACCGAGCTTGATCCTCGATGATCC / GGATCATCGAGGATCGAGCTCGGTGCAATT [GT30, end-blocked]”, the binding result in data set [2] and in data set [3] was “binds” each time.
“ATAGGACGCTGACACTGGTGCTTGGCAGCTTCTAATTCGAT (double strand) [41-bp homoduplex, TAMRA]”: the binding result in data set [4] is “binds”; in data set [5] it was “binds more weakly”; in data set [6], “binds more weakly”; in data set [7], “binds”.
